Laboratory results reported in patent US11975048B2, “Long-acting fatty acid-conjugated GnRH derivatives and pharmaceutical compositions containing same” (NOVEL PHARMA INC., priority 2019, dated 2024).
For at least one compound, name, drawing or mass did not settle the structure.

Legend:
Format in all cases: cell-based
PC3 = assay: Cell viability assay (CCK-8), prostate cancer cell line PC3
Protocol: (§1) GnRH derivatives are clinically applied to the therapy of diseases including breast cancer, prostate cancer, endometriosis, central precocious puberty, and the like. […] An assay for cell viability was performed using the Cell Counting Kit-8 (CCK-8, manufactured by DOJINDO). Each of the cell lines was separated from the T75 flask by trypsinization and transferred to 96-well plates at a density of 1×10^4 cells/mL for DU-145 and at a density of 1×10^5 cells/mL for PC3 and LNCaP, followed by incubation for one hour for attachment.
(§2) Subsequently, each cell line was treated with 100 μM and 200 μM of each of the derivatives of Comparative Examples 1 to 3 and Examples 9 to 16 and the control. In brief, 1% methyl β-cyclodextrin was used as a negative control for cell viability while 0.1% sodium dodecyl sulfate (SDS) served as a positive control. After 48 hours of incubation, the existing culture medium was removed, and 100 μL of fresh culture medium and 10 μL of CCK-8 solution were applied to each cell line. Again, after 48 hours of incubation, the medium solution was replaced by 100 μL of fresh culture medium and 10 μL of CCK-8 solution. The cells were incubated for 4 hours, and then the absorbance was measured at 450 nm to assess cell viability.

DU-145 = assay: Cell viability assay (CCK-8), prostate cancer cell line DU-145
Protocol: as §1, §2

LNCaP = assay: Cell viability assay (CCK-8), prostate cancer cell line LNCaP
Protocol: as §1, §2

CC(C)C[C@H](NC(=O)CNC(=O)[C@H](Cc1ccc(O)cc1)NC(=O)[C@H](CO)NC(=O)[C@H](Cc1c[nH]c2ccccc12)NC(=O)[C@H](Cc1cnc[nH]1)NC(=O)[C@@H]1CCC(=O)N1)C(=O)N[C@@H](CCCNC(=N)N)C(=O)N1CCC[C@H]1C(=O)NCC(N)=O [C. Example 1]
Viability of PC3 relative to negative control 1% methyl-ß-cyclodextrin (%) (PC3; treatment conc. 100 μM): 105.44 ± 1.76% | Viability of PC3 relative to negative control 1% methyl-ß-cyclodextrin (%) (PC3; treatment conc. 200 μM): 100.11 ± 1.82% | Viability of DU-145 relative to negative control 1% methyl-β-cyclodextrin (%) (DU-145; treatment conc. 100 μM): 107.50 ± 2.56% | Viability of DU-145 relative to negative control 1% methyl-β-cyclodextrin (%) (DU-145; treatment conc. 200 μM): 101.08 ± 3.26% | Viability of LNCaP relative to negative control 1% methyl-β-cyclodextrin (%) (LNCaP; treatment conc. 100 μM): 105.64 ± 4.03% | Viability of LNCaP relative to negative control 1% methyl-β-cyclodextrin (%) (LNCaP; treatment conc. 200 μM): 93.64 ± 4.20% | Viability of LNCaP relative to negative control 1% methyl-β-cyclodextrin (%) (LNCaP; treatment conc. 200 μM, listed as Comparative Example 1): about 93%
